Values of other authors, collected in US20220370396A1, “METHODS FOR MODULATING CONDITIONS OF THE EYE USING NOVEL LATANOPROST COMPOUND OPHTHALMIC COMPOSITIONS” (Somerset Therapeutics LLC, priority 2021, published 2022).

Conditions: patients starting on monotherapy; cited from earlier work

SMILES | Rate of adjunctive medication use [%]
CCNC(=O)CCC/C=C\C[C@@H]1[C@@H](/C=C/[C@@H](O)CCc2ccccc2)[C@H](O)C[C@@H]1O [bimatoprost] | 23.2
CC(C)OC(=O)CCC/C=C\C[C@@H]1[C@@H](CC[C@@H](O)CCc2ccccc2)[C@H](O)C[C@@H]1O [latanoprost, isopropyl (Z)-7[(1R,2R,3R,5S)3,5-dihydroxy-2-[(3R)-3-hydroxy-5-phenylpentyl]cyclopentyl]-5-heptanoate] | 30.2
CC(C)OC(=O)CCC/C=C\C[C@@H]1[C@@H](/C=C/[C@@H](O)COc2cccc(C(F)(F)F)c2)[C@H](O)C[C@@H]1O [travoprost] | 22.5
